In patent publication US11312984B2, “High-purity steviol glycosides” (PURECIRCLE SDN BHD, priority 2013, dated 2022):

Assay: Conversion of Rebaudioside A to Rebaudioside M with in situ prepared UDP-glucose using UGTSL2, UGT76G1var94 and AtSUS
Format: biochemical
Conditions: after 21 h of reaction time, 0.5 mM Rebaudioside A
Procedure: The reaction was performed at 1 mL scale using 100 mM of sucrose, 3 mM of MgCl2, 0.25 mM of UDP and 0.5 mM of Rebaudioside A in potassium phosphate buffer (50 mM final concentration, pH 7.5). The reaction was started by adding 15 μL of UGTSL2 (see EXAMPLE 27) lysate (2 U/mL), 150 μL of UGT76G1var94 (see EXAMPLE 26) (2.5 U/mL) and 15 μL of AtSUS (see EXAMPLE 42) (400 U/mL). The reaction was followed by HPLC after quenching 125 μL samples with 10 μL of 2 N H2SO4 and 115 μL of 60% methanol. 68% of Rebaudioside M and 26% of Rebaudioside M2 were obtained after 21 h of reaction time.

SMILES | Rebaudioside M2 obtained [%] | Rebaudioside M obtained [%]
C=C1C[C@@]23CC[C@H]4[C@@](C)(CCC[C@@]4(C)C(=O)OC4OC(COC5OC(CO)C(O)C(O)C5O)C(O)C(O)C4OC4OC(CO)C(O)C(O)C4O)[C@@H]2CCC1(OC1OC(CO)C(O)C(OC2OC(CO)C(O)C(O)C2O)C1OC1OC(CO)C(O)C(O)C1O)C3 (stereo partly drawn) [reb M2, 13-[(2-O-β-D-glucopyranosyl-3-O-β-D-glucopyranosyl-β-D-glucopyranosyl)oxy] ent-kaur-16-en-19-oic acid-[(2-O-β-D-glucopyranosyl-6-O-β-D-glucopyranosyl-β-D-glucopyranosyl) ester]] | 26 | 
C=C1C[C@@]23CC[C@H]4[C@@](C)(CCC[C@@]4(C)C(=O)O[C@@H]4O[C@H](CO)[C@@H](O)[C@H](O[C@@H]5O[C@H](CO)[C@@H](O)[C@H](O)[C@H]5O)[C@H]4O[C@@H]4O[C@H](CO)[C@@H](O)[C@H](O)[C@H]4O)[C@@H]2CC[C@]1(O[C@@H]1O[C@H](CO)[C@@H](O)[C@H](O[C@@H]2O[C@H](CO)[C@@H](O)[C@H](O)[C@H]2O)[C@H]1O[C@@H]1O[C@H](CO)[C@@H](O)[C@H](O)[C@H]1O)C3 [reb M, rebaudioside M] |  | 68
